Source: article PMC11177981
Changes are numbered by the printed parent chain. Results are given in words; binding and its absence hold for the method and conditions named. For some of these results: In cells and extracts the contact can be indirect. Some entries that bind do so weakly or less than the wild type. For some of these results: Sequences can lack the tags named with a protein.

Key:
[1] = molecular target: T1, mitochondrial antiviral-signaling protein (MAVS), endogenous in C2C12 cells (mouse (endogenous in C2C12)), Q8VCF0; assay: native gel or EMSA; C2C12 lysate in 2% DDM, 25mM HEPES, 150mM NaCl on 4-16% NativePAGE, blot for MAVS; Ubxn9+/+, Ubxn9-/-, Slc2a4+/+ and Slc2a4-/- cells, 3p-hpRNA for 6 hr; conditions: remark: other sources report otherwise
T1 chain: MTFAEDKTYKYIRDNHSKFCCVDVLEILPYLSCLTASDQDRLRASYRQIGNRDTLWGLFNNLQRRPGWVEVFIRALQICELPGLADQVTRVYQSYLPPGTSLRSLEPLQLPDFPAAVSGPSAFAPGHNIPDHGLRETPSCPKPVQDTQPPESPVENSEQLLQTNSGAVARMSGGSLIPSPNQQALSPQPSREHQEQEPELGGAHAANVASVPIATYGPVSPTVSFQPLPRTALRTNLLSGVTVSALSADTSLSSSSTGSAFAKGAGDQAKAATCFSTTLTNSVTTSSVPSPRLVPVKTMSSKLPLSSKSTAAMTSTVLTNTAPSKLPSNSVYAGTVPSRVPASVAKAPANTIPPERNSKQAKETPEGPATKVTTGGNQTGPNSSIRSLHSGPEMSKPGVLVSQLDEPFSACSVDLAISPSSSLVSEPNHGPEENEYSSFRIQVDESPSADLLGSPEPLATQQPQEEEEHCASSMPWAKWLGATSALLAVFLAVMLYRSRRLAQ

[2] = molecular target: T2, Myc-GLUT4-GFP reporter stably expressed in 3T3-L1 adipocytes (UniProt P14672); assay: co-IP; anti-Myc magnetic beads on lysate (50mM Tris HCl, 150mM NaCl, 1mM EDTA, 1% TRITON X-100) of 3T3-L1 adipocytes stably expressing Myc-GLUT4-GFP, stimulated with insulin for various times; 3T3 WT without Myc-GLUT4 as negative control
T2 sequence: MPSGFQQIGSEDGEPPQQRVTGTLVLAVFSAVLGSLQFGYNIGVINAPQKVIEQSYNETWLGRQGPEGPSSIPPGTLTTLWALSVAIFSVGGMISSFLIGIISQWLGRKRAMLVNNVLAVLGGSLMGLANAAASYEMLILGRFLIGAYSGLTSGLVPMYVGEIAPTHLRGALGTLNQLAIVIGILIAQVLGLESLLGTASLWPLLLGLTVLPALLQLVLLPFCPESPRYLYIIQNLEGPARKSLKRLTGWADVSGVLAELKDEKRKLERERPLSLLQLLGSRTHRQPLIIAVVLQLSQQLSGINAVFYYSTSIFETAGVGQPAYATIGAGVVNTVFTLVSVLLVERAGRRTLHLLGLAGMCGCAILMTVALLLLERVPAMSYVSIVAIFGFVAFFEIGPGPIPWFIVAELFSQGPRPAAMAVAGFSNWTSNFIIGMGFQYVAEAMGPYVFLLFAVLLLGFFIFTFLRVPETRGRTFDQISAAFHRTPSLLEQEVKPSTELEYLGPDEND

[3] = molecular target: T3, FLAG-GLUT4 (human full length) expressed in HEK293T cells (human) (UniProt P14672); assay: co-IP; anti-FLAG magnetic beads on lysate (2% DDM, 25mM HEPES, 150mM NaCl) of HEK293T cells transfected with FLAG-GLUT4 constructs; blot for endogenous RIG-I and UBXN9; vector pcDNA3.1-FLAG as control
T3 sequence: T2 sequence

[4] = molecular target: T4, FLAG-GLUT4 Arg169Ala (R169A) expressed in HEK293T cells (human) (UniProt P14672); assay: as above
T4 sequence: T2 sequence with R169A

B1: mitochondrial antiviral-signaling protein (MAVS), endogenous in C2C12 cells, Q8VCF0 1-503 (protein)
chain: T1 chain
- binding [1]: binds

B2: retinoic acid inducible gene I (RIG-I), endogenous in 3T3-L1 adipocytes (protein, UniProt Q6Q899 1-926)
chain: MTAEQRQNLQAFRDYIKKILDPTYILSYMSSWLEDEEVQYIQAEKNNKGPMEAASLFLQYLLKLQSEGWFQAFLDALYHAGYCGLCEAIESWDFQKIEKLEEHRLLLRRLEPEFKATVDPNDILSELSECLINQECEEIRQIRDTKGRMAGAEKMAECLIRSDKENWPKVLQLALEKDNSKFSELWIVDKGFKRAESKADEDDGAEASSIQIFIQEEPECQNLSQNPGPPSEASSNNLHSPLKPRNYQLELALPAKKGKNTIICAPTGCGKTFVSLLICEHHLKKFPCGQKGKVVFFANQIPVYEQQATVFSRYFERLGYNIASISGATSDSVSVQHIIEDNDIIILTPQILVNNLNNGAIPSLSVFTLMIFDECHNTSKNHPYNQIMFRYLDHKLGESRDPLPQVVGLTASVGVGDAKTAEEAMQHICKLCAALDASVIATVRDNVAELEQVVYKPQKISRKVASRTSNTFKCIISQLMKETEKLAKDVSEELGKLFQIQNREFGTQKYEQWIVGVHKACSVFQMADKEEESRVCKALFLYTSHLRKYNDALIISEDAQMTDALNYLKAFFHDVREAAFDETERELTRRFEEKLEELEKVSRDPSNENPKLRDLYLVLQEEYHLKPETKTILFVKTRALVDALKKWIEENPALSFLKPGILTGRGRTNRATGMTLPAQKCVLEAFRASGDNNILIATSVADEGIDIAECNLVILYEYVGNVIKMIQTRGRGRARDSKCFLLTSSADVIEKEKANMIKEKIMNESILRLQTWDEMKFGKTVHRIQVNEKLLRDSQHKPQPVPDKENKKLLCGKCKNFACYTADIRVVETSHYTVLGDAFKERFVCKPHPKPKIYDNFEKKAKIFCAKQNCSHDWGIFVRYKTFEIPVIKIESFVVEDIVSGVQNRHSKWKDFHFERIQFDPAEMSV
- binding [2]: binds

B3: retinoic acid inducible gene I (RIG-I), endogenous in HEK293T cells (protein, UniProt O95786 1-925)
chain: MTTEQRRSLQAFQDYIRKTLDPTYILSYMAPWFREEEVQYIQAEKNNKGPMEAATLFLKFLLELQEEGWFRGFLDALDHAGYSGLYEAIESWDFKKIEKLEEYRLLLKRLQPEFKTRIIPTDIISDLSECLINQECEEILQICSTKGMMAGAEKLVECLLRSDKENWPKTLKLALEKERNKFSELWIVEKGIKDVETEDLEDKMETSDIQIFYQEDPECQNLSENSCPPSEVSDTNLYSPFKPRNYQLELALPAMKGKNTIICAPTGCGKTFVSLLICEHHLKKFPQGQKGKVVFFANQIPVYEQQKSVFSKYFERHGYRVTGISGATAENVPVEQIVENNDIIILTPQILVNNLKKGTIPSLSIFTLMIFDECHNTSKQHPYNMIMFNYLDQKLGGSSGPLPQVIGLTASVGVGDAKNTDEALDYICKLCASLDASVIATVKHNLEELEQVVYKPQKFFRKVESRISDKFKYIIAQLMRDTESLAKRICKDLENLSQIQNREFGTQKYEQWIVTVQKACMVFQMPDKDEESRICKALFLYTSHLRKYNDALIISEHARMKDALDYLKDFFSNVRAAGFDEIEQDLTQRFEEKLQELESVSRDPSNENPKLEDLCFILQEEYHLNPETITILFVKTRALVDALKNWIEGNPKLSFLKPGILTGRGKTNQNTGMTLPAQKCILDAFKASGDHNILIATSVADEGIDIAQCNLVILYEYVGNVIKMIQTRGRGRARGSKCFLLTSNAGVIEKEQINMYKEKMMNDSILRLQTWDEAVFREKILHIQTHEKFIRDSQEKPKPVPDKENKKLLCRKCKALACYTADVRVIEECHYTVLGDAFKECFVSRPHPKPKQFSSFEKRAKIFCARQNCSHDWGIHVKYKTFEIPVIKIESFVVEDIATGVQTLYSKWKDFHFEKIPFDPAEMSK
- binding [3]: binds
- binding [4]: binds
